Laboratory results reported in publication PMC9583544.

Protein sequences, listed by entry. Tags and fused reporters are not part of them. Residues count along the entry.
UniProt Q14195: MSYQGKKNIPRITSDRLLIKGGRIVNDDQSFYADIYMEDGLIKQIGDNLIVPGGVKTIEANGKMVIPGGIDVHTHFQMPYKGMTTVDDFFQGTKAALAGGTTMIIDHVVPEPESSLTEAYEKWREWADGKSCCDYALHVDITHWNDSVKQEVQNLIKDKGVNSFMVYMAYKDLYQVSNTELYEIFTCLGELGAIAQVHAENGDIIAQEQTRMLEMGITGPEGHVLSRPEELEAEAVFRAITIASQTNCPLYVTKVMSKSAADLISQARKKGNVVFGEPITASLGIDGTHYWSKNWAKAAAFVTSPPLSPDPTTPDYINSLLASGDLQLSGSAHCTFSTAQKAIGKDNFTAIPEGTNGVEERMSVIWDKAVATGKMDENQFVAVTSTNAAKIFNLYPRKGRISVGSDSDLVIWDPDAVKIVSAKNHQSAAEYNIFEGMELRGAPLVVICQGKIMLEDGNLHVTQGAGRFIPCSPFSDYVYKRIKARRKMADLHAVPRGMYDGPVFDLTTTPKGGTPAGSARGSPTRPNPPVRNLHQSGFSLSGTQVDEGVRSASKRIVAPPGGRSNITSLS
UniProt P68104: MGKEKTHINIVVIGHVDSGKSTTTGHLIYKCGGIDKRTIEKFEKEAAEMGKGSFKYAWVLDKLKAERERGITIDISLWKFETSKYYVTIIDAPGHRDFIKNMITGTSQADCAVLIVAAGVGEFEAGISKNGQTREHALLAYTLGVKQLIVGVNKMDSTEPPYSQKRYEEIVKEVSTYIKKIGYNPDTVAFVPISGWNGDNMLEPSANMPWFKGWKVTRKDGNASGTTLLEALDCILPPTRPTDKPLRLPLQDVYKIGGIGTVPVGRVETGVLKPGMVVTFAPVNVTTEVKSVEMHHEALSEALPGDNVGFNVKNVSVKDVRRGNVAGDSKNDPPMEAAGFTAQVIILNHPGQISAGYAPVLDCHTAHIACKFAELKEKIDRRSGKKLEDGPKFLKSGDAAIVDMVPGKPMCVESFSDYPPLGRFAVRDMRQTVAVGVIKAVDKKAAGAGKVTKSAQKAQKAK
UniProt P11021, residues 19-654: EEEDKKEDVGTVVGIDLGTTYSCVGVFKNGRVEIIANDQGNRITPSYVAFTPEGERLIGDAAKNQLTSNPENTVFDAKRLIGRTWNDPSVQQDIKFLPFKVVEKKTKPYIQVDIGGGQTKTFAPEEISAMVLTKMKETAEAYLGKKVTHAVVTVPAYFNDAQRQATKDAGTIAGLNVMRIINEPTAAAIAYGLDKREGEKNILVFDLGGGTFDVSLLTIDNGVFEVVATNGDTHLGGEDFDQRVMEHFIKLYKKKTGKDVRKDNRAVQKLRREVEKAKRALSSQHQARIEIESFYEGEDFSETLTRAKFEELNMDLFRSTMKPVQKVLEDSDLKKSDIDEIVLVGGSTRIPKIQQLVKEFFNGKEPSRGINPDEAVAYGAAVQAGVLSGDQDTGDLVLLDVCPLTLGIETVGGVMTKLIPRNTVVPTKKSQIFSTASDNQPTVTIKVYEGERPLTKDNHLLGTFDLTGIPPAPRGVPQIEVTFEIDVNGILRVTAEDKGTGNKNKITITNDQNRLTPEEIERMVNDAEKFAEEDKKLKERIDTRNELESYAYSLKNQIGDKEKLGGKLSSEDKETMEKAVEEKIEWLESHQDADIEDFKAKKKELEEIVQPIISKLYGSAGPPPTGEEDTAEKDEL
UniProt P11142: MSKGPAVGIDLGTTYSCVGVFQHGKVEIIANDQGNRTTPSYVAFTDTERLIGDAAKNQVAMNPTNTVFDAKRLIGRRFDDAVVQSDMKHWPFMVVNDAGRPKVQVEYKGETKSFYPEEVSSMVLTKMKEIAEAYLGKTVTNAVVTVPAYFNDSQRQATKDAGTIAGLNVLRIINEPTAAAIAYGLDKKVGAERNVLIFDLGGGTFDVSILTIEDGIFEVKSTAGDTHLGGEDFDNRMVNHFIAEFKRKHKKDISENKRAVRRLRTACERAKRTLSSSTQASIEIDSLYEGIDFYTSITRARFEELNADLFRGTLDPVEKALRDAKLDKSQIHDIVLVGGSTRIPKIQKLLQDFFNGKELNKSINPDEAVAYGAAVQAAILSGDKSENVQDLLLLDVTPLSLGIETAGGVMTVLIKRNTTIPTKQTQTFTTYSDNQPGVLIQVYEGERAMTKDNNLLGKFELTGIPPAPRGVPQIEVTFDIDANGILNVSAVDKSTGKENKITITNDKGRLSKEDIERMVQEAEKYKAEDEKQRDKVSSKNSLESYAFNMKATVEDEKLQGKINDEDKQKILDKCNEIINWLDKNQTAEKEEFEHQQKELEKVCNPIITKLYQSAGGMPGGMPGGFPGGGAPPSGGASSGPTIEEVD
UniProt P10809, residues 27-573: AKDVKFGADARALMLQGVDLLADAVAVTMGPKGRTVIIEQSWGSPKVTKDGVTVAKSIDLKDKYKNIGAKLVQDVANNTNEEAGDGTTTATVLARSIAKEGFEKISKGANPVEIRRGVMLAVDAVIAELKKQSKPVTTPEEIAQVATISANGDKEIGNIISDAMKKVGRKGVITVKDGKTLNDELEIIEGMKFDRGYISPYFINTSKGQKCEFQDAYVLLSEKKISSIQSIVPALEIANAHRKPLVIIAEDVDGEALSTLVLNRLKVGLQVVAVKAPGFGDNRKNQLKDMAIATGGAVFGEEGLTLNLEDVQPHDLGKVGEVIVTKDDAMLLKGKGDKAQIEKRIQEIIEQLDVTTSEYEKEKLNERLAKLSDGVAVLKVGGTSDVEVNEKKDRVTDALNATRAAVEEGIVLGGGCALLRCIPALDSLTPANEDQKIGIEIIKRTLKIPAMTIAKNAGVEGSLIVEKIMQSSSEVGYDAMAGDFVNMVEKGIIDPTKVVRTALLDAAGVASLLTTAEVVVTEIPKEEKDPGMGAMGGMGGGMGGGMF
UniProt P22314: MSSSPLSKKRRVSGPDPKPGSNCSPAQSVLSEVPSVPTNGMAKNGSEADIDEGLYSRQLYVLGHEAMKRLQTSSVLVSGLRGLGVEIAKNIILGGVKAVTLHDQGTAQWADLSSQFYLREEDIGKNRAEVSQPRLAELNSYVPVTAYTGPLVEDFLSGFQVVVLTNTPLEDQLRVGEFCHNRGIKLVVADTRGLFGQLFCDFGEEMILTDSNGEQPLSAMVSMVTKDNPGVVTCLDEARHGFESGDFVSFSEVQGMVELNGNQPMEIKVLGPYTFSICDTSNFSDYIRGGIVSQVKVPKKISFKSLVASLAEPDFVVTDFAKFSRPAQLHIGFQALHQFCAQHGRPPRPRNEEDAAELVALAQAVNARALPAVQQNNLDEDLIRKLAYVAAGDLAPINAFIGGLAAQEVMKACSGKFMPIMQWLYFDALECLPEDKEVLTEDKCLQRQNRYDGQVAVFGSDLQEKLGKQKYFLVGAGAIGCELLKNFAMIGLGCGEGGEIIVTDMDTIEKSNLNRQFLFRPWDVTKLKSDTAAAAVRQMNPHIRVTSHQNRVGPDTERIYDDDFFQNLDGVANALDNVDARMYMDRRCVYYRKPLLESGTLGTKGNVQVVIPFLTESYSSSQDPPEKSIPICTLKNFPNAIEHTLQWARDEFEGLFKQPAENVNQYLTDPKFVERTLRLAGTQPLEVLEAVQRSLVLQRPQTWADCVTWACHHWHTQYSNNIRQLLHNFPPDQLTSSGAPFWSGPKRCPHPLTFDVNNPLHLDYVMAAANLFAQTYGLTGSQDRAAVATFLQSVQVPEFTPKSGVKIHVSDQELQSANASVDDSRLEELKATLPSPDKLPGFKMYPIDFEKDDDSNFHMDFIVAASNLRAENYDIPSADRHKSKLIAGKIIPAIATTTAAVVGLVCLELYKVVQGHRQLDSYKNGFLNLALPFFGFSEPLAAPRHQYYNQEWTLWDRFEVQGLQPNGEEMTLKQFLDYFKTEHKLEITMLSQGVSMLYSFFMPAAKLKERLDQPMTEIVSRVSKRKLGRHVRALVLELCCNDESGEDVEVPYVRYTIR

Target: interferon stimulated gene (ISG) 15 (human (endogenous in IPSC-derived neurons)) (UniProt P05161)
Experiment: affinity purification with mass spectrometry; lysates of human IPSC-derived neurons (non-targeted control against ISG15 knockout) treated with 100 ng/mL IFNγ for 24 h; NDG lysis buffer (1% Nonidet P-40, 0.5% deoxycholate, 10% glycerol, 20 mM Tris, 137 mM NaCl, pH 8.0); immunoprecipitated with biotinylated anti-ISG15 (clone F9) on streptavidin magnetic nanoparticles; eluted in 5% glacial acetic acid; LC-MS; hits >5 counts and >5-fold enriched over ISG15 KO precipitates

| binding | Substance |
| --- | --- |
| binds | DPYSL3/CRMP4 (from UniProt Q14195 1-570) |
| binds | EEF1A1 (from UniProt P68104 1-462) |
| binds | HSPA5 (from UniProt P11021 19-654) |
| binds | HSPA8 (from UniProt P11142 1-646) |
| binds | HSPD1 (from UniProt P10809 27-573) |
| binds | UBA1 (from UniProt P22314 1-1058) |

No constants are given. Whether binding was seen depends on the method and setting. In cells and extracts the contact can be indirect. A yes stands for co-enrichment or nearness to the bait. Other partners may have been found.
